Assay results reported in patent publication US9930893B2, “Inhibitors of DXP synthase and methods of use thereof” (The Johns Hopkins University, priority 2014, dated 2018).
Entries after “also recorded” stand apart in the source; their conditions may differ. At least one structure is not confirmed: it was looked up by name or label, or the drawing left a doubt. Some entries repeat one wording, which the source may state once for all of them.

Legend:
[1] = molecular target: Porcine pyruvate dehydrogenase (PDH E1 subunit); test: Inhibition of PDH by acetylphosphonates; format: biochemical
Description: FIG. 6A, FIG. 6B, and FIG. 6C are charts showing Competitive inhibition of procine PDH E1 subunit by PentAP (FIG. 6A), HexAP (FIG. 6B) and OctAP (FIG. 6C). Inhibition assays were performed as previously described^[18]. Pyruvate concentration was varied from 12.5-250 μM and acetylphosphonate concentration was varied: 0 μM (∘), 250 μM (PentAP) or 200 μM (HexAP and OctAP) (●), 500 μM (□) and 1000 μM (▪). Experiments were performed in triplicate, and data were subjected to non-linear regression analysis for Ki determinations (GraphPad Prism). Representative Lineweaver-Burk plots (GraFit from Erithacus Software) are shown for PentAP (FIG. 6A), HexAP (FIG. 6B) and OctAP (FIG. […]) to illustrate the competitive inhibition mode with respect to pyruvate.
Pyruvate dehydrogenase activity was measured spectrophotometrically as previously reported ^[38] by monitoring absorbance changes at 340 nm due to reduction of NAD^+ by PDH. Reaction mixtures contained 100 mM HEPES (pH 8.0), 1 mg/mL BSA, 0.2 mM ThDP, 0.1 mM coenzyme A, 1 mM MgCl2, 2 mM cysteine, 0.3 mM tris(2-carboxyethyl)phosphine (TCEP). The reaction was initiated with enzyme (0.01 units/ml) and activity was monitored at 30° C. For inhibition studies, reaction mixtures (described above) including BnAP (0.5, 1, 2.25 mM) were pre-incubated at 30° C. for 5 minutes. Initial rates were measured immediately after reactions were initiated by addition of PDH (0.01 units/ml). Double reciprocal analysis of data was carried out using GraFit version 7 from Erithacus Software.

[2] = system: E. coli overproducing DXP synthase; test: Rescue of E. coli growth by increasing intracellular DXP synthase levels; format: cell-based; details: CAMHB, 16 h; BnAP 0.16 mM, PentAP 0.31 mM, HexAP 0.63 mM, OctAP 5 mM
[3] = system: wild-type K-12 E. coli (ATCC: MG1655); test: Antimicrobial activity against E. coli K-12 grown in CAMHB; format: cell-based; details: FIG. 10, in words
Description: FIG. 7A and FIG. 7B are charts showing representative growth curves are shown for BAP (FIG. 7A) and BnAP (FIG. 7B). Alkylacetylphosphonates exert dose-dependent delay in E. coli K-12 (MG 1655) growth in CAMHB. Fractional growth (measured at 16 h, blue arrow) was determined relative to the no drug control. Standardized cell cultures were exposed to increasing concentrations of acetylphosphonate, and growth was determined by measuring the OD600 for a period of 16 hours. Acetylphosphonate concentration was varied from 0-5 mM: No drug (light blue), 0.08 mM (orange), 0.16 mM (gray), 0.31 mM (yellow), 0.63 mM (blue), 1.25 mM (green), 2.5 mM (dark blue) and 5.0 mM (brown).
Thus, BnAP, PentAP, HexAP and OctAP, also shown to inhibit DXP synthase, were evaluated for antimicrobial activity against wild-type K-12 E. coli (ATCC: MG1655) grown in rich medium (CAMHB).

[4] = system: E. coli K-12 (BW25113); test: Antimicrobial activity against E. coli K-12 grown in M9 minimal medium; format: cell-based; details: in words
Source text: The product of DXP synthase, DXP, lies at a metabolic branchpoint. DXP serves as precursor not only for essential isoprenoids, but also is essential to central metabolism as a precursor to both thiamin diphosphate and pyridoxal phosphate. Thus, evaluation of antimicrobial activity of DXP synthase inhibitors in the standard, rich growth medium (CAMHB) which contains rescuing metabolites, likely underestimates the antimicrobial activities of these agents. Standard in vitro culture conditions may have poor predictive value for these agents in vivo; access to most nutrients is thought to be more difficult from the host than in nutrient rich media.

[5] = molecular target: T1, E. coli MEP synthase (IspC) (Escherichia coli, UniProt P45568); test: Inhibition of the coupling enzyme IspC; format: biochemical; details: coupling enzyme control
T1 construct: made in house
T1 sequence (P45568 1-398): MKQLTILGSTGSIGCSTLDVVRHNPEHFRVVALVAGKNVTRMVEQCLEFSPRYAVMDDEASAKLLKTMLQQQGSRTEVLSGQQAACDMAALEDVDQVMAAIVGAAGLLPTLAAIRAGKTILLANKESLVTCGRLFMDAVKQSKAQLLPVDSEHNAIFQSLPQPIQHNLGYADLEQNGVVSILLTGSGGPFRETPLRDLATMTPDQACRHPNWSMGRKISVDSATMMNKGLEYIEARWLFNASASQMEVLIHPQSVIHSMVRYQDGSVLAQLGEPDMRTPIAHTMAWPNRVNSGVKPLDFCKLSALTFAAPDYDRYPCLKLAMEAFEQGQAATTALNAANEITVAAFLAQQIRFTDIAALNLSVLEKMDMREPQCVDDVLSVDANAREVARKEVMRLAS

SMILES	Ki^PDH/Ki^DXPS ([1]; Table 5)	rescue of E. coli growth on DXP synthase overproduction [2]	antimicrobial effects against E. coli (MG1655) [3]	antimicrobial activity in M9 minimal medium relative to CAMHB [4]	higher inhibitory activity against DXP synthase compared to PDH [1] [fold]	Ki^PDH/Ki^DXPS ([1]; selectivity DXP synthase over PDH)	Inhibition of IspC not observed up to [5] [mM]
CCCCCOP(=O)(O)C(C)=O [PentAP, Pentylacetylphosphonate]	25	partial rescue; also recorded: Rescue is observed	dose-dependent inhibition	–	–	–	–
CCCCCCOP(=O)(O)C(C)=O [HexAP, Hexylacetylphosphonate]	13	partial rescue; also recorded: Rescue is observed	dose-dependent inhibition	comparable in M9 minimal medium and CAMHB	–	–	–
CC(=O)P(=O)(O)OCc1ccccc1 [Compound 1, benzyl acetylphosphonate]	88	partial rescue; also recorded: Rescue is observed	dose-dependent inhibition	–	~85	~85	> 1.5
CCCCCCCCOP(=O)(O)C(C)=O [OctAP, Octylacetylphosphonate]	26	appears to protect E. coli cells; also recorded: to some extent	–	–	–	–	–
